# The exact form of at least one protein or probe is not confirmed. For some of these results: A negative result means that nothing was seen under these conditions. Where a protein sequence is shown, tags need not be part of it.
# How the values were obtained:
# [1] = tested on: T1, THBD (three linked HBDs, Cys-free linkers) (Thermotoga maritima); test: EMSA; conditions: purified recombinant protein
# T1 sequence: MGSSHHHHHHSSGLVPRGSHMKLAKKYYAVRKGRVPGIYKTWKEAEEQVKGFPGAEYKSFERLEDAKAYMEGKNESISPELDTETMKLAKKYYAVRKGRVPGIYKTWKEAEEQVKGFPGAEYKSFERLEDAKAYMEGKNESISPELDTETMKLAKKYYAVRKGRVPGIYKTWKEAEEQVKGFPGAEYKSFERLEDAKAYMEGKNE
# [2] = tested on: T2, DHBD (two linked HBDs, Cys-free SIS linker) (Thermotoga maritima); test: EMSA; conditions: two complexes; affinity over 10-fold above SHBD; 150 mM NaCl, pH 7.4; purified recombinant protein; label: 32P at RNA 5'-end; DNA:RNA hybrid
# T2 sequence: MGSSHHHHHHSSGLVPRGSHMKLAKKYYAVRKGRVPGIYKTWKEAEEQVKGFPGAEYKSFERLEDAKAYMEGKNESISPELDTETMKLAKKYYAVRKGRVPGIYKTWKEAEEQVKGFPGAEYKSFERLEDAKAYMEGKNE
# [3] = tested on: T3, HBD (SHBD), hybrid-binding domain of RNase H1 (Thermotoga maritima); test: EMSA; conditions: discrete complex, smear at higher concentration; 150 mM NaCl, pH 7.4, room temperature; purified recombinant protein; label: 32P at RNA 5'-end; DNA:RNA hybrid
# T3 sequence (limits assumed): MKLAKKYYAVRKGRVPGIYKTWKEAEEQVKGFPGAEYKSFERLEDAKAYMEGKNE
# [4] = tested on: T1, THBD (three linked HBDs, Cys-free linkers) (Thermotoga maritima); test: SPR; conditions: steady state, ±0.006; kinetic model 0.19 ± 0.02 nM; 0.37 nM in Example 9; pH 7.4, 100 mM NaCl, 25 C; purified recombinant protein; label: 5'-biotin; DNA:RNA hybrid
# [5] = tested on: T2, DHBD (two linked HBDs, Cys-free SIS linker) (Thermotoga maritima); test: SPR; conditions: steady state, ±1; kinetic model 12 ± 2 nM; 29 nM steady state in Example 9 [p373]; pH 7.4, 100 mM NaCl, 25 C; purified recombinant protein; label: 5'-biotin; DNA:RNA hybrid
# [6] = tested on: T3, HBD (SHBD), hybrid-binding domain of RNase H1 (Thermotoga maritima); test: SPR; conditions: steady state, ±180; 8.29 uM in Example 9 [p372]; kinetics too fast to fit; pH 7.4, 100 mM NaCl, 25 C; purified recombinant protein; label: 5'-biotin; DNA:RNA hybrid
sequence,measurement,setting,value
GAAAUACGGUCCGAAACGUUG / CAACGTTTCGGACCGTATTTC [21 bp RNA-DNA hybrid],binding result,"[1]; two complexes, at least 10-fold above DHBD, 150 mM NaCl, pH 7.4, label: 32P at RNA 5'-end, DNA:RNA hybrid",binds
same,binding result,[2],binds
same,binding result,[3],binds
GAAAUACGGUCCGAAACGUUG [21 nt ssRNA],binding result,"[1]; THBD does not bind 21 nt ssRNA, label: 5'-32P, variant of 21 bp RNA-DNA hybrid",no binding
TCAACGTTTCGGACCGTATTTCTTTTGAAAUACGGUCCGAAACGUUG [21 bp RNA-DNA hybrid hairpin (47 nt chimeric)],Kd,[4],0.38 nM
same,Kd,[5],20 nM
same,Kd,[6],7970 nM
